{
  "sequences": {"note": "The chains behind the UniProt entries cited, without tags or fusion partners. Where a name states a change or a piece, a line headed by the entry shows the natural chain unless it says otherwise. Residues count along the entry.", "UniProt P02787, 20-698, species assumed": "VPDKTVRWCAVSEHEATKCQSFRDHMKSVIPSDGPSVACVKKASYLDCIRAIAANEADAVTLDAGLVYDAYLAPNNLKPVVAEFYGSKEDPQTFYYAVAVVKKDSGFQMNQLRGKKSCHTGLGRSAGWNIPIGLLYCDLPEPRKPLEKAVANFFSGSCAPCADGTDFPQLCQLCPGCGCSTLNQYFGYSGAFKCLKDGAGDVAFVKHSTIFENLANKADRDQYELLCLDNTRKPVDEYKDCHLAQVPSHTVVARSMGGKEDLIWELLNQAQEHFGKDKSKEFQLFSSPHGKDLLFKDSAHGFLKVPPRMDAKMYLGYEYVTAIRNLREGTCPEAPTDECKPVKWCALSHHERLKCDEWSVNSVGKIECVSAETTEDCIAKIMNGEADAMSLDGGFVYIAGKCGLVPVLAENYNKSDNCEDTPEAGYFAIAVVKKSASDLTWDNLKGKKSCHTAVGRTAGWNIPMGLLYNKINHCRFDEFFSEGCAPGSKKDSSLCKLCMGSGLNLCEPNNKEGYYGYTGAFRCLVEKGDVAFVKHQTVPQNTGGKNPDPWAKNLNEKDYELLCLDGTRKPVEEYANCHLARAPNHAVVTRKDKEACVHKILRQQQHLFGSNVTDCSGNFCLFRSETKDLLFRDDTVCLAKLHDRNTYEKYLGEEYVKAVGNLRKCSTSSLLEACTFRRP", "UniProt P31749": "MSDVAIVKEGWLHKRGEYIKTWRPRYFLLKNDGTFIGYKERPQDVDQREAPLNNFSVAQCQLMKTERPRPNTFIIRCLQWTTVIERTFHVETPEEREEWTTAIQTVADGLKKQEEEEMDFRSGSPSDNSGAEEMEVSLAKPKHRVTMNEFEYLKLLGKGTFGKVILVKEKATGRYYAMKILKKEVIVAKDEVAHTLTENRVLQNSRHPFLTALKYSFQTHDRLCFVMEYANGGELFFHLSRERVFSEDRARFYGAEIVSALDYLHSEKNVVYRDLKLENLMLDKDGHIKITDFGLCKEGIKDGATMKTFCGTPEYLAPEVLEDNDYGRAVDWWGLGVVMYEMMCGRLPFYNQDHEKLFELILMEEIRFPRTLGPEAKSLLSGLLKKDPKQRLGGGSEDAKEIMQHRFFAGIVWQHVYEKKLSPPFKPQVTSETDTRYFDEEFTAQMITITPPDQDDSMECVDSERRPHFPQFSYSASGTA"},
  "source": "patent US9863938B2",
  "about": "“Synthetic antibodies” (ARIZONA BOARD OF REGENTS, A BODY CORPORATE OF THE STATE OF …, priority 2006, dated 2018)",
  "key": {"[1]": {"molecular_target": "transferrin (Homo sapiens, UniProt P02787)", "assay": "SPR of lysine-linked synbodies, transferrin immobilized, Kd from kinetics", "type": "binding"}, "[2]": {"molecular_target": "AKT1 (Homo sapiens, UniProt P31749)", "assay": "SPR evaluation of SYN23-26 binding to AKT1", "settings": "read-out: estimated Kd with respect to AKT1"}},
  "note": "Where two headings read alike, the source gives them in different places. For at least one compound, name, drawing or mass did not settle the structure. Bridge positions count the residues as written; N and C are the ends. Ends that are not written are not given here. I, II: the chains in the order shown.",
  "data": [
    {"substance": "I: H-FRGWAHIFFGPHVIYRGGSGKC / II: H-AHKVVPQRQIRHAYNRYGSG (amide I:21-II:C) [SYN23-26]", "values": [
      {"measurement": "Kd", "setting": "[1]; SPR, read-out: estimated Kd with respect to transferrin", "value": "~141", "unit": "nM"},
      {"measurement": "Kd", "setting": "[2]", "value": "~1", "unit": "nM"}
    ]},
    {"substance": "I: H-FRGWAHIFFGPHVIYRGGSGKC / II: H-AHKVVPQRQIRHAYNRYGSG (amide I:21-II:C) [synbody comprising TRF-26 and TRF-23]", "values": [
      {"measurement": "Kd", "setting": "[1]; from kinetics, read-out: Kd with respect to transferrin", "value": "150 ± 50", "unit": "nM"}
    ]}
  ]
}
